The values that follow come from patent US20250263472A1.

Substitutions are numbered along the chain they refer to. Results are given in words; binding and its absence hold for the method and conditions named. Some binding calls cover weakened binding; strength is not graded here. For part of these data: Sequences can lack the tags named with a protein.

The target in test [1] is T1, Natural Ara h 2 (InBio) (peanut) (UniProt Q6PSU2).
T1 sequence (looked up): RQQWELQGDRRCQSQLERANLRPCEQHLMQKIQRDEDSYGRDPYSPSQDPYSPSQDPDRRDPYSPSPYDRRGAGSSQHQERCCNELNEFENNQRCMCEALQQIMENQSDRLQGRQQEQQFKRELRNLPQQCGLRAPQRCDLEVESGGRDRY
As to the kind of experiment: SPR, Carterra LSA (Example 2). (In general: In SPR one partner is held on a chip, and binding of the other changes the refractive index at the surface.)

Test [2] deals with T2, His-tagged recombinant Ara h 2 (peanut) (UniProt Q6PSU2).
T2 sequence (looked up): T1 sequence (looked up)
As to the kind of experiment: blocking ELISA, competitor captured peanut allergic plasma IgE, 9 plasmas. A general note: An ELISA detects its analyte on a solid surface through an enzyme-linked reagent.

In test [3] the target is T1, Natural Ara h 2 (InBio) (peanut). As to the kind of experiment: told in the description of Combination-1; assay not named.
Test [4] addresses T2, His-tagged recombinant Ara h 2 (peanut). As to the kind of experiment: binding ELISA on recombinant Ara h 2 (FIG. 3C).

B1: Molecule-2f (antibody, human IgG4 S228P, kappa, V domains shown)
VH: QEQLVQSGGGVVQPGRSLTVSCAGSGFTFSYHALHWVRQAPGKGLEWLAVISDNGNRRDYVDSVRGRFSVSRDNSRNTVFLQMDSLRADDSAVYFCARTMDFDSGSHYYGLDVWGQGTTVIVSS
VL: EVVLTQSPALLSLSPGERASLSCRASQTINSNYLAWYQLKPGQAPRLVIYLTSTRAPGIPARFSGSGSGTDFTLTIDRLEPEDFALYYCQHYSRSPPYSFGQGTRLDVKR
Turning to B1, the binding entry in test [1] and in test [2] was “binds” throughout.

B2: Molecule-2c (antibody, human IgG4 S228P, kappa, V domains shown)
VH: B1 VH with Q1E, E2V, N54A, N56D
VL: B1 VL
For B2, the binding entry in test [3] is recorded as “binds”.

B3: Molecule-2e (antibody, human IgG4 S228P, kappa, V domains shown)
VH: EVQLVESGGGVVQPGRSLTLTCVGSGFNFDDYTMHWVRQRPGKGLEWVSSIRYNSVRIEYVESVKGRFTTSRDNAKNSLYMEMKSLRPEDTAFYYCVKDNGFRSFEIWGQGTMVIVSS
VL: EIVMTQSPLSLPVTPGEPASISCRSTQSLEHSNGYHYLDWYVQKAGQSPQLLISLGSKRASGVPDRFSGSVSGTDFTLKISRVEAEDVGVYYCMQALQTWTFGQGTKVEIKR
Turning to B3, the binding entry in test [1], in test [4] and in test [2] was “binds” each time.

B4: Molecule-2d (antibody, human IgG4 S228P, lambda, V domains shown)
VH: EVALVESGGGLVQPGGSLRLSCTASGFKFSDHWMTWVRQAPGKGLEWVASISEDGREKVYVDSVRGRFTLSRDNAKKSLSLQMTSLRVDDTAKYHCARVSTRVVNDGFDIWGQGAMVIVSL
VL: SYVLTQPPSVSAAPGETARITCGGKNIADKNVHWYQHRPGQAPVMVIYDDDDRPSEIPDRFSGSNSGNTATLTISRVEAGDEADYYCQVWDSRSEYVFGTGTTVTVLG
B4: the binding entry in test [1], in test [4] and in test [2] was “binds” each time.
